Source: publication PMC12533322
Results are given in words; binding and its absence hold for the method and conditions named. Binding seen in cells or lysates may run through a third protein. Some binding calls cover weakened binding; strength is not graded here.

Biological target: T1, Lysosomal integral membrane protein type 2 (LIMP2) (human (endogenous in THP1)) (UniProt Q14108)
T1 sequence: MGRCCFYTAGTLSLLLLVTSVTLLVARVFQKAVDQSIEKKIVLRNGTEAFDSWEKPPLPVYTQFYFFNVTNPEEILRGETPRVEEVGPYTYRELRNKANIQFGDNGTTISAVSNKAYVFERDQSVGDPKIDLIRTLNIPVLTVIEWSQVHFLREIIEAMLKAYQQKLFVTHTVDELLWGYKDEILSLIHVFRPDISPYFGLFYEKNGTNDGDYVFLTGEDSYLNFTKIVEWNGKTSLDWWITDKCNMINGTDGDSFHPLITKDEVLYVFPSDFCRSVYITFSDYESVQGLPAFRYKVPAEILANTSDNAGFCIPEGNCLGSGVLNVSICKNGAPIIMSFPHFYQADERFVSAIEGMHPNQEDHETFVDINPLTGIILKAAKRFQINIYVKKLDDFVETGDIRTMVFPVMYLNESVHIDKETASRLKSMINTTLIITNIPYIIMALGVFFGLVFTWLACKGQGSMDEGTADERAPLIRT
Assay: co-IP; THP1 cells treated without or with LW-213 (5 µM/15 µM) in the presence of BAF-A1 (50 nM) for 6 h; cell lysates incubated overnight at 4 °C with antibodies and protein A/G-conjugated beads; washed three times with RIPA buffer; western blot; the precipitating antibody is not stated

- binding: binds
B1: TBC1D15 (protein, UniProt Q8TC07 1-691)
chain: MAAAGVVSGKIIYEQEGVYIHSSCGKTNDQDGLISGILRVLEKDAEVIVDWRPLDDALDSSSILYARKDSSSVVEWTQAPKERGHRGSEHLNSYEAEWDMVNTVSFKRKPHTNGDAPSHRNGKSKWSFLFSLTDLKSIKQNKEGMGWSYLVFCLKDDVVLPALHFHQGDSKLLIESLEKYVVLCESPQDKRTLLVNCQNKSLSQSFENLLDEPAYGLIQAGLLDRRKLLWAIHHWKKIKKDPYTATMIGFSKVTNYIFDSLRGSDPSTHQRPPSEMADFLSDAIPGLKINQQEEPGFEVITRIDLGERPVVQRREPVSLEEWTKNIDSEGRILNVDNMKQMIFRGGLSHALRKQAWKFLLGYFPWDSTKEERTQLQKQKTDEYFRMKLQWKSISQEQEKRNSRLRDYRSLIEKDVNRTDRTNKFYEGQDNPGLILLHDILMTYCMYDFDLGYVQGMSDLLSPLLYVMENEVDAFWCFASYMDQMHQNFEEQMQGMKTQLIQLSTLLRLLDSGFCSYLESQDSGYLYFCFRWLLIRFKREFSFLDILRLWEVMWTELPCTNFHLLLCCAILESEKQQIMEKHYGFNEILKHINELSMKIDVEDILCKAEAISLQMVKCKELPQAVCEILGLQGSEVTTPDSDVGEDENVVMTPCPTSAFQSNALPTLSASGARNDSPTQIPVSSDVCRLTPA
